No constants are given. Whether binding was seen depends on the method and setting. Binding can be weak; no strength is given.
Target: biotinylated cynoPD1-ECD-Biotin (cynomolgus)
Test: ELISA for cyno PD1 (row 'cynomolgus crossreactivity (EC50 [nm]')

binding: binds
B1: chimeric PD1-0103 (antibody, V domains shown)
VH: EVILVESGGGLVKPGGSLKLSCAASGFSFSSYTMSWVRQTPEKRLDWVATISGGGRDIYYPDSVKGRFTISRDNAKNTLYLEMSSLMSEDTALYYCVLLTGRVYFALDSWGQGTSVTVSS
VL: KIVLTQSPASLPVSLGQRATISCRASESVDTSDNSFIHWYQQRPGQSPKLLIYRSSTLESGVPARFSGSGSRTDFTLTIDPVEADDVATYYCQQNYDVPWTFGGGTKLEIK
